In the supplement of paper PMC10849652:
Some of the results follow.

Protein sequences, listed by entry. Tags and fused reporters are not part of them. Lines headed by an entry give the natural chain unless they say otherwise; changes in a name come on top.
UniProt P12004, whole entry, looked up: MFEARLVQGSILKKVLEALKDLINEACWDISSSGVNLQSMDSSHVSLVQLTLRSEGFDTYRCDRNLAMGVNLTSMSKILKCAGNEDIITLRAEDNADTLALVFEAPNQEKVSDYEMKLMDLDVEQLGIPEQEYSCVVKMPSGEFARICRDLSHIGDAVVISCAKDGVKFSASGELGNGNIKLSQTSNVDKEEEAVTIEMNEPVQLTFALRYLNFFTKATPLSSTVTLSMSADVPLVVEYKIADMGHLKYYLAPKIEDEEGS
UniProt Q8NBM8: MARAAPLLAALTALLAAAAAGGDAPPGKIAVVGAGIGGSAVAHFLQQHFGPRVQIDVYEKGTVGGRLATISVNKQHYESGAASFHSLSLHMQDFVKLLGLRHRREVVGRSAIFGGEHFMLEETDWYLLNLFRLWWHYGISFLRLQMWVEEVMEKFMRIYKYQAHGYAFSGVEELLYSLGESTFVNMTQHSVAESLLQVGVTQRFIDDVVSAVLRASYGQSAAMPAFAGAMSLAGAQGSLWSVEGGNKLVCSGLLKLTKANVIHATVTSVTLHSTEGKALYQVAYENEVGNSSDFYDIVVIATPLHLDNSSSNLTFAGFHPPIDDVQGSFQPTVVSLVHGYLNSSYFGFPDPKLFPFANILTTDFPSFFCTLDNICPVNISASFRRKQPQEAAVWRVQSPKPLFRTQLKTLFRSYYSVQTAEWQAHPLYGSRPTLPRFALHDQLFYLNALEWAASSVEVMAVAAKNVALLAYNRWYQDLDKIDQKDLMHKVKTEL
UniProt Q14554: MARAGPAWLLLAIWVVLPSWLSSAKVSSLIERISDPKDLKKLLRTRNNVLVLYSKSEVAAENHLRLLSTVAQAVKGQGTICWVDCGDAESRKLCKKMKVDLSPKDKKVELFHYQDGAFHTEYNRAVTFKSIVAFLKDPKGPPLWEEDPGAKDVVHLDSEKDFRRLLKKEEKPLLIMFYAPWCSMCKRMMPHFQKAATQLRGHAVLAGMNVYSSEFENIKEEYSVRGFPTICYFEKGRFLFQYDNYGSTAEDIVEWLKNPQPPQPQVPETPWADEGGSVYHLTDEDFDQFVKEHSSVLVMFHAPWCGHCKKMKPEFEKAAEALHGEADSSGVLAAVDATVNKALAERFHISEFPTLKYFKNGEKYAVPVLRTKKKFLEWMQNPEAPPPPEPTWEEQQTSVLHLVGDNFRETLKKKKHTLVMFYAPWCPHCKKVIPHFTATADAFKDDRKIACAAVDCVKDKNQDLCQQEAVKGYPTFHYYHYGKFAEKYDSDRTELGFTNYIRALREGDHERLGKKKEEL
UniProt O96013: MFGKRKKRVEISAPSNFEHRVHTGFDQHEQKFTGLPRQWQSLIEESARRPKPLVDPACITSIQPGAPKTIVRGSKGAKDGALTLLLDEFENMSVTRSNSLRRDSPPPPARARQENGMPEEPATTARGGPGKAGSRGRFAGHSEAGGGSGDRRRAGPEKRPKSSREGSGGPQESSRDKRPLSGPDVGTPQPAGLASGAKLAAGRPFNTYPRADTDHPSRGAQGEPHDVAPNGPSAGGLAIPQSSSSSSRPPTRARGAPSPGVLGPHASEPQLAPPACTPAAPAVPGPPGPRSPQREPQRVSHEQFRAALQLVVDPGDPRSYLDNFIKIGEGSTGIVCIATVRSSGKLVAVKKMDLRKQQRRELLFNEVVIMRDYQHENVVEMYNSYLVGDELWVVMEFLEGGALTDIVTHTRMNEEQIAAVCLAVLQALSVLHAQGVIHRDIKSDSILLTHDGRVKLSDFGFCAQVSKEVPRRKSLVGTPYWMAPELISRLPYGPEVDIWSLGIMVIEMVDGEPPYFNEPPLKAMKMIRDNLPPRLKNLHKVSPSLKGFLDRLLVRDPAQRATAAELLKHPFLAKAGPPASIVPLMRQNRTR
UniProt P13667: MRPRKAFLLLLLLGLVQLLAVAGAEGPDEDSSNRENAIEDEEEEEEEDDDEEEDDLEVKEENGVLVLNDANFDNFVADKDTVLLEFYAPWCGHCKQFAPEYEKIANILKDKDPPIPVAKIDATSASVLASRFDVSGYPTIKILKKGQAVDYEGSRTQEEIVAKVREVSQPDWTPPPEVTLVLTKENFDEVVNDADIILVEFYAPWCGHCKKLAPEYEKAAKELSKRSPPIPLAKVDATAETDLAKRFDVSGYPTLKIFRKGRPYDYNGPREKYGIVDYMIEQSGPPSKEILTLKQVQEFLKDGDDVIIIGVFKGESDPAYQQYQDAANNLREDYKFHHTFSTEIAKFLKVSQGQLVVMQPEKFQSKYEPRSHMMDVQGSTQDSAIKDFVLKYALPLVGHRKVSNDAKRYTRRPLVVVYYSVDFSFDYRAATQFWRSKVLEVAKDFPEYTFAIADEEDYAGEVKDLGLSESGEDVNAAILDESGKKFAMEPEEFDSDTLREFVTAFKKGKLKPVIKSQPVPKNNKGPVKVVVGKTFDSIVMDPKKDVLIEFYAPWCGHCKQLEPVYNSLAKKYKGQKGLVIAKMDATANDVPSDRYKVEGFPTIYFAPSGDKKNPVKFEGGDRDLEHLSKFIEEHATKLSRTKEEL
UniProt O00408, whole entry, looked up: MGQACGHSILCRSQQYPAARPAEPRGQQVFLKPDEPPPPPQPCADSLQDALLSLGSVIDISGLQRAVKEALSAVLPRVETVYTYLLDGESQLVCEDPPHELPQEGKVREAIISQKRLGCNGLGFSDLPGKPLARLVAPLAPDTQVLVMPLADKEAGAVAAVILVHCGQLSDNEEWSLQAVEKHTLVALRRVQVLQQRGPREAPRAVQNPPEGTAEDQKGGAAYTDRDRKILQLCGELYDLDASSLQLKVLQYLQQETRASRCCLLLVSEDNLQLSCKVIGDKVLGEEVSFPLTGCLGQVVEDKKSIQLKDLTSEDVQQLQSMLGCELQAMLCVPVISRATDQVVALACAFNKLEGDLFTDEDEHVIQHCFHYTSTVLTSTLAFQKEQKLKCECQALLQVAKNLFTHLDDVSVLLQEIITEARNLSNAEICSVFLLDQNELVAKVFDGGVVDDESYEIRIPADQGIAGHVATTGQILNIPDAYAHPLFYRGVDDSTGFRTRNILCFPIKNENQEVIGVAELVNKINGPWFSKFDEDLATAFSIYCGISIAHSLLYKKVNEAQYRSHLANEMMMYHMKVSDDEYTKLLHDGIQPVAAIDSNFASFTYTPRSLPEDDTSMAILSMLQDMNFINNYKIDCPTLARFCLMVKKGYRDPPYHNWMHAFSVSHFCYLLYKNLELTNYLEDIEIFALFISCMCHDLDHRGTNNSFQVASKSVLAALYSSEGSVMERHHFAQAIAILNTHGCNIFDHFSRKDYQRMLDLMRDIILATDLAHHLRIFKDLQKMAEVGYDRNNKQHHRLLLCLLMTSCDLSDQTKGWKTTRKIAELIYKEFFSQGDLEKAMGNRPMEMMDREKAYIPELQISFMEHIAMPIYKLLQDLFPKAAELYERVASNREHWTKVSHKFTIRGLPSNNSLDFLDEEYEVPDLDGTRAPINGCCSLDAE
UniProt P09874, whole entry, looked up: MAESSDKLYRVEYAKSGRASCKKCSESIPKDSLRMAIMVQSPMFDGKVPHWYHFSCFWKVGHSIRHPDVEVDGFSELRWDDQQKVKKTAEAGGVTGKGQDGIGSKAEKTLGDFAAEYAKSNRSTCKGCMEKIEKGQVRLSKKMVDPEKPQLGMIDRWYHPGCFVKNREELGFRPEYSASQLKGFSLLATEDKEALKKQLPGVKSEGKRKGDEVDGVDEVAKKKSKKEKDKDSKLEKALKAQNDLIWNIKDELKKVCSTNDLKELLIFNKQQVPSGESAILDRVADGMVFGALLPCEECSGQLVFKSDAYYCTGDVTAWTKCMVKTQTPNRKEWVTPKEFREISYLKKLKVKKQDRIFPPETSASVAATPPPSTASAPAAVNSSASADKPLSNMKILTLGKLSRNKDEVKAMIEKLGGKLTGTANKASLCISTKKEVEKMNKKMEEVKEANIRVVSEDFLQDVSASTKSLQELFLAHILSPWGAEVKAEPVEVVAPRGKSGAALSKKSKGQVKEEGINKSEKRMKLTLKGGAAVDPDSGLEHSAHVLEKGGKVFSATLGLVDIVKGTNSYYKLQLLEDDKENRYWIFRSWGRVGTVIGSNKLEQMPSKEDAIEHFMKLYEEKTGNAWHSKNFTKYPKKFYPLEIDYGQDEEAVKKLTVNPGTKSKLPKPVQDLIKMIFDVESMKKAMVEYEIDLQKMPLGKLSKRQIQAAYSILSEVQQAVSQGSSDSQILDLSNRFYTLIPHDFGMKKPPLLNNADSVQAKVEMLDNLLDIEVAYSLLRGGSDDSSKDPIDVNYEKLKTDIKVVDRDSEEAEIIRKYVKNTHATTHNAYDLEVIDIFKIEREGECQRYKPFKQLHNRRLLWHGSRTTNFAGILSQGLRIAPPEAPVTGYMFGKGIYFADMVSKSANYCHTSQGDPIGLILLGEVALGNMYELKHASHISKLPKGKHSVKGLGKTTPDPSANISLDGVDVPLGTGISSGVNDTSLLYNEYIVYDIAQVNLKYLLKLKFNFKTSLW
UniProt Q8NBP7, whole entry, looked up: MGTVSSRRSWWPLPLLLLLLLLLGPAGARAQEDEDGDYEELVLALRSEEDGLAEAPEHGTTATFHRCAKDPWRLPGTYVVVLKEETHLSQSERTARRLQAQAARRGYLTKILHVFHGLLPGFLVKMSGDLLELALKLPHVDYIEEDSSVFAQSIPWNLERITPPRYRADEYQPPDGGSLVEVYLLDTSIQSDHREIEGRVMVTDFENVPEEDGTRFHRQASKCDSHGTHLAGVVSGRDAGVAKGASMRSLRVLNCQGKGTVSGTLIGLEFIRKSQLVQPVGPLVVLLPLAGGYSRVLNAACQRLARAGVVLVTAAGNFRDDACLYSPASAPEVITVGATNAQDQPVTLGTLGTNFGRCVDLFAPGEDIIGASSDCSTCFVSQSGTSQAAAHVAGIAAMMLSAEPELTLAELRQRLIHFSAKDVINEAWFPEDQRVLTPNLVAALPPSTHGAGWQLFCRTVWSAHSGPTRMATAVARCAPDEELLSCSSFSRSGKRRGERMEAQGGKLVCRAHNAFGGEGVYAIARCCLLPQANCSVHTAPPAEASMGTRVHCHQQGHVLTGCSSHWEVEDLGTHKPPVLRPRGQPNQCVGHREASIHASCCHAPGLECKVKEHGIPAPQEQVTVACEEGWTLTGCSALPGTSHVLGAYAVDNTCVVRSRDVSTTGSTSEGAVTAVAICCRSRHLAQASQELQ
UniProt Q86SE9: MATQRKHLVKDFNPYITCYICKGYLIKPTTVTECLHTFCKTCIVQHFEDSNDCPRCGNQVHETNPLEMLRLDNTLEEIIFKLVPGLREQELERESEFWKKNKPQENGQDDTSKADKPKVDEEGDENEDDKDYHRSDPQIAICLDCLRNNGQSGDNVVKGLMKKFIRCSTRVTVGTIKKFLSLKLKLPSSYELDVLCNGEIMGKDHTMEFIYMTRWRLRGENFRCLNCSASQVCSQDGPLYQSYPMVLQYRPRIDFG
UniProt Q9UBV8: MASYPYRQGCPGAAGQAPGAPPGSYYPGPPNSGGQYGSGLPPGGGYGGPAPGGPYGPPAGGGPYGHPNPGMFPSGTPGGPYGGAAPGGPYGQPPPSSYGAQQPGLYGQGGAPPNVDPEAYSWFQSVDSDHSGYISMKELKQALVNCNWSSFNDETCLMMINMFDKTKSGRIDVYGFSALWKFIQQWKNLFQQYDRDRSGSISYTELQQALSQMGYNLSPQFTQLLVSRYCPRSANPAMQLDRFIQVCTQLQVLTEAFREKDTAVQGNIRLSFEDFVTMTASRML
UniProt Q53EL6: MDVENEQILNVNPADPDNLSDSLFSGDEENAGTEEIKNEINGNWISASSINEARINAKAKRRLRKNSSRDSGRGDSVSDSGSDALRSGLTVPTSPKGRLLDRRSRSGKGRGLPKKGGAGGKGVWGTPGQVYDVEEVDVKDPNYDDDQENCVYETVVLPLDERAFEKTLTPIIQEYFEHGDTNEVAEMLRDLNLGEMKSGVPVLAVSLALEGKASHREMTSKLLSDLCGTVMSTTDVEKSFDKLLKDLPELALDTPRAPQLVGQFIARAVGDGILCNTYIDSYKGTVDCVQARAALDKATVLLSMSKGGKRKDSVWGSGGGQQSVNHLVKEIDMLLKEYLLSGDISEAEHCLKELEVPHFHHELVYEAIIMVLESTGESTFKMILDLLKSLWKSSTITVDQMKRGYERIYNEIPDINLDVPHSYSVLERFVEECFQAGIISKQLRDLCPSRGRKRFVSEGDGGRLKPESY
UniProt Q5JVF3: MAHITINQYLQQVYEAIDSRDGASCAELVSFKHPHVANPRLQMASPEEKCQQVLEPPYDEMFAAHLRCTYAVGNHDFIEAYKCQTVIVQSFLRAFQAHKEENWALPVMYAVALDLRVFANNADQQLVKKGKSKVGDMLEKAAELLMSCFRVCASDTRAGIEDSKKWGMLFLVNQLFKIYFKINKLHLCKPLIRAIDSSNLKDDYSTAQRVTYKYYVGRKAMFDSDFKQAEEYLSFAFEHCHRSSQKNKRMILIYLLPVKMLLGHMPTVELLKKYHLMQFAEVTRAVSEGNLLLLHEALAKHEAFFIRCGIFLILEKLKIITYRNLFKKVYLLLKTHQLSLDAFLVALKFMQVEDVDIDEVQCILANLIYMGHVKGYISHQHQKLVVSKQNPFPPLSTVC

Tests used:
Assay in all cases: log2 fold change, soluble protein after heating vs DMSO (PISA); higher = thermal stabilisation; K562 cells, 10 uM, 30 min; active = over 0.2 and 3.5 SD of the protein, either way, in both replicates (recomputed)
[1] = compound: C1=CC=C(C=C1)[C@H](COC2=CC3=C(C=C2)NC(=O)N3)NC(=O)C4=CC=CN(C4=O)CC5=CC(=C(C=C5)F)F
In short: (§1)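 Values are thermal stability changes relative to control samples and are taken from duplicates. They are stated as log2 fold changes. Before quantification by TMTpro 16plex LC-MS/MS with equalised channel sums, K562 cells at 2×10^6 cells/mL were treated with 10 μM compound for 30 min, heated in aliquots for 3 min across 48°C-58°C, pooled, extracted in PBS with 0.5% NP-40 at 4°C, and centrifuged at 21,000xg for 90 min to give the soluble supernatant.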

[2] = compound: CC1=C(SC2=C1C(=N[C@H](C3=NN=C(N32)C)CC(=O)N)C4=CC=C(C=C4)Cl)C
In short: as §1

[3] = compound: CC1=C2C(=CC=C1)N=C(N(C2=O)C3=CC=CC=C3C)CN4C=NC5=C(N=CN=C54)N
In short: as §1

[4] = compound: Cc1sc2c(c1C)C(c1ccc(Cl)cc1)=N[C@@H](CC(=O)OC(C)(C)C)c1nnc(C)n1-2
In short: as §1

[5] = compound: c1ccc([C@@H]2C[C@H]2NC2CCNCC2)cc1
In short: as §1

Measured: log2 fold change

PCNA (UniProt P12004)
inactive: [1] -0.006 | [2] 0.025 | [3] 0 | [4] -0.01 | [5] -0.007

PCYOX1L (UniProt Q8NBM8)
inactive: [1] -0.02 | [2] -0.009 | [3] 0.034 | [4] 0.014 | [5] -0.017

PDIA5 (UniProt Q14554)
inactive: [1] 0.044 | [2] -0.051 | [3] 0.01 | [4] -0.009 | [5] -0.05

PAFAH2 (UniProt Q99487)
inactive: [1] -0.191 | [2] 0.016 | [3] 0.066 | [4] -0.117 | [5] -0.141

PAK4 (UniProt O96013)
inactive: [1] -0.005 | [2] 0.045 | [3] 0.102 | [4] -0.02 | [5] -0.016

PECAM1 (UniProt P16284)
inactive: [1] 0.063 | [2] 0.138 | [3] 0.014 | [4] -0.06 | [5] 0.047

PARVB (UniProt Q9HBI1)
inactive: [1] -0.034 | [2] 0.02 | [3] 0.057 | [4] 0.014 | [5] -0.002

PBDC1 (UniProt Q9BVG4)
inactive: [1] -0.019 | [2] 0.058 | [3] 0.082 | [4] -0.01 | [5] -0.023

PDIA4 (UniProt P13667)
inactive: [1] 0.03 | [2] -0.024 | [3] -0.01 | [4] -0.013 | [5] -0.032

PCCA (UniProt P05165)
inactive: [1] -0.054 | [2] 0.034 | [3] 0.112 | [4] -0.03 | [5] -0.061

PDE2A (UniProt O00408)
inactive: [1] 0.079 | [2] 0.08 | [3] 0.16 | [4] -0.024 | [5] 0.065

PELO (UniProt Q9BRX2)
inactive: [1] -0.037 | [2] 0.116 | [3] 0.103 | [4] 0.064 | [5] -0.049

PER3 isoform 2 (UniProt P56645)
inactive: [1] 0.015 | [2] -0.008 | [3] 0.013 | [4] -0.003 | [5] 0.087

Quoted at random: 2 entries already listed
PECAM1 (UniProt P16284)
inactive: [1] 0.063 | [2] 0.138 | [3] 0.014 | [4] -0.06 | [5] 0.047

PELO (UniProt Q9BRX2)
inactive: [1] -0.037 | [2] 0.116 | [3] 0.103 | [4] 0.064 | [5] -0.049

More records.

PDCL3 (UniProt Q9H2J4)
inactive: [1] -0.003 | [2] 0.029 | [3] 0.016 | [4] -0.018 | [5] 0.008

PACSIN2 (UniProt Q9UNF0)
inactive: [1] -0.134 | [2] 0.079 | [3] 0.103 | [4] 0.009 | [5] -0.091

PARP1 (UniProt P09874)
inactive: [1] -0.098 | [2] 0.027 | [3] 0.182 | [4] -0.069 | [5] -0.101

PCSK9 (UniProt Q8NBP7)
inactive: [1] 0.019 | [2] -0.062 | [3] -0.089 | [4] 0.111 | [5] -0.073

PCBP2 (UniProt F8VRH0)
inactive: [1] -0.033 | [2] -0.18 | [3] -0.013 | [4] 0.085 | [5] 0.026

PCGF5 (UniProt Q86SE9)
inactive: [1] -0.033

PDIA3 (UniProt P30101)
inactive: [1] -0.008 | [2] -0.064 | [3] -0.086 | [4] -0.015 | [5] -0.028

PEF1 (UniProt Q9UBV8)
inactive: [1] 0.01 | [2] 0.185 | [3] 0.047 | [4] -0.178 | [5] -0.014

PCMTD1 (UniProt Q96MG8)
inactive: [1] 0.123

PANK2 (UniProt Q9BZ23)
inactive: [1] -0.016 | [2] 0.078 | [3] 0.035 | [4] 0.01 | [5] 0.063

PDCD4 (UniProt Q53EL6)
inactive: [1] -0.055 | [2] 0.002 | [3] 0.053 | [4] -0.167 | [5] -0.003

PCID2 (UniProt Q5JVF3)
inactive: [1] -0.18 | [2] 0.057 | [3] 0.159 | [4] 0.033 | [5] -0.071

PDHX (UniProt O00330)
inactive: [1] 0.128 | [2] -0.242 | [3] -0.054 | [4] -0.023 | [5] 0
